PubChem BioAssay AID1224829 – NIAID | 2016
In all, the deposit lists about 3,800 reagents; shown is a random part of them. 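Calls cover raised and lowered translocation; gene median uses one vendor's three siRNAs; qiagen siRNAs acted more weakly than ambion siRNAs.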 Reagents against one gene are numbered here.

- Purpose: 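Genes needed for LPS-driven NF-kappaB p65 nuclear entry in mouse macrophages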 (follow-up of hits)
- Cell system: mouse RAW264.7 G9 macrophage reporter cells
- Reagents: single siRNA against mouse genes, 100 nM
- Duration: 2 days of siRNA knock-down, then 40 min of LPS before fixing
- Challenge: LPS (Salmonella minnesota R595) at 10 ng/ml
- Measured: 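High-content images after 40 min LPS exposure; GFP-p65 nucleus to surrounding ring signal ratio, normalised to plate median and non-targeting control wells, expressed as z-score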
- Scale: p65 translocation z-score and gene median z-score, per vendor: higher = more nuclear NF-kappaB p65 after LPS
- Hit rule: 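Active means the replicate-mean z-score lies beyond plus or minus 2, in either direction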
- Calls: active = changed p65 translocation (either direction); inactive = no clear change

p65 translocation z-score, replicate mean	p65 translocation z-score, replicate 1	p65 translocation z-score, replicate 2	gene median z-score, per vendor	call	gene	siRNA no.	siRNA vendor or control pool
-0.153	-0.0256	-0.28	-0.766	inactive	Arhgef1 (GeneID 16801)	1	ambion single siRNA
-1.35	-0.766	-1.94	-0.766	inactive	Arhgef1 (GeneID 16801)	2	ambion single siRNA
-2.87	-2.87		-0.766	active	Arhgef1 (GeneID 16801)	3	ambion single siRNA
1.1	0.586	1.61	-0.158	inactive	Arhgef1 (GeneID 16801)	4	qiagen single siRNA
-0.389	-0.337	-0.441	-0.158	inactive	Arhgef1 (GeneID 16801)	5	qiagen single siRNA
-1.23	0.0208	-2.48	-0.158	inactive	Arhgef1 (GeneID 16801)	6	qiagen single siRNA
-0.374	-0.374		-0.631	inactive	Nfe2l2 (GeneID 18024)	1	ambion single siRNA
-0.65	-0.65		-0.631	inactive	Nfe2l2 (GeneID 18024)	2	ambion single siRNA
-0.898	-0.611	-1.18	-0.631	inactive	Nfe2l2 (GeneID 18024)	3	ambion single siRNA
-3.11	-2	-4.23	-2.41	active	Nfe2l2 (GeneID 18024)	4	qiagen single siRNA
-1.43	-2.35	-0.506	-2.41	inactive	Nfe2l2 (GeneID 18024)	5	qiagen single siRNA
-3.77	-2.46	-5.07	-2.41	active	Nfe2l2 (GeneID 18024)	6	qiagen single siRNA
-1.48	-1.35	-1.62	1.68	inactive	Folr1 (GeneID 14275)	1	ambion single siRNA
3.43	3.99	2.87	1.68	active	Folr1 (GeneID 14275)	2	ambion single siRNA
1.68	2.55	0.8	1.68	inactive	Folr1 (GeneID 14275)	3	ambion single siRNA
-0.446	-1.46	0.57	-1.46	inactive	Folr1 (GeneID 14275)	4	qiagen single siRNA
-1.22	-0.481	-1.96	-1.46	inactive	Folr1 (GeneID 14275)	5	qiagen single siRNA
-1.48	-1.48		-1.46	inactive	Folr1 (GeneID 14275)	6	qiagen single siRNA
-4.02	-4.56	-3.49	-4.17	active	Tpr (GeneID 108989)	1	ambion single siRNA
-5.14	-4.38	-5.9	-4.17	active	Tpr (GeneID 108989)	2	ambion single siRNA
-2.98	-3.95	-2	-4.17	active	Tpr (GeneID 108989)	3	ambion single siRNA
1.49	-0.177	3.15	-0.44	inactive	Tpr (GeneID 108989)	4	qiagen single siRNA
-0.978	-0.704	-1.25	-0.44	inactive	Tpr (GeneID 108989)	5	qiagen single siRNA
-0.178	-1.03	0.679	-0.44	inactive	Tpr (GeneID 108989)	6	qiagen single siRNA
0.0748	-0.443	0.593	-1.11	inactive	Magi1 (GeneID 14924)	1	ambion single siRNA
-2.74	-1.79	-3.68	-1.11	active	Magi1 (GeneID 14924)	2	ambion single siRNA
-0.174	1.44	-1.79	-1.11	inactive	Magi1 (GeneID 14924)	3	ambion single siRNA
3.35	1.84	4.87	1.63	active	Magi1 (GeneID 14924)	4	qiagen single siRNA
1.05	0.692	1.42	1.63	inactive	Magi1 (GeneID 14924)	5	qiagen single siRNA
1.81	0.529	3.08	1.63	inactive	Magi1 (GeneID 14924)	6	qiagen single siRNA
-4.42	-5.62	-3.22	-3.82	active	Rassf8 (GeneID 71323)	1	ambion single siRNA
-0.63	1.75	-3.01	-3.82	inactive	Rassf8 (GeneID 71323)	2	ambion single siRNA
-4.95	-5.5	-4.41	-3.82	active	Rassf8 (GeneID 71323)	3	ambion single siRNA
-0.912	-0.912		-0.133	inactive	Rassf8 (GeneID 71323)	4	qiagen single siRNA
-0.565	-0.997	-0.133	-0.133	inactive	Rassf8 (GeneID 71323)	5	qiagen single siRNA
2.16	0.29	4.03	-0.133	active	Rassf8 (GeneID 71323)	6	qiagen single siRNA
-0.175	0.527	-0.877	-1.7	inactive	Tuba3b (GeneID 22147)	1	ambion single siRNA
-1.7	-2.33	-1.06	-1.7	inactive	Tuba3b (GeneID 22147)	2	ambion single siRNA
-2.77	-2.88	-2.67	-1.7	active	Tuba3b (GeneID 22147)	3	ambion single siRNA
1.41	0.0702	2.75	0.081	inactive	Tuba3b (GeneID 22147)	4	qiagen single siRNA
0.823	0.0918	1.55	0.081	inactive	Tuba3b (GeneID 22147)	5	qiagen single siRNA
-3.01	-2.49	-3.54	0.081	active	Tuba3b (GeneID 22147)	6	qiagen single siRNA
-1.6	-3.25	0.0587	-2.94	inactive	Ube2d3 (GeneID 66105)	1	ambion single siRNA
-2.53	-2.94	-2.12	-2.94	active	Ube2d3 (GeneID 66105)	2	ambion single siRNA
-5.83	-5.83		-2.94	active	Ube2d3 (GeneID 66105)	3	ambion single siRNA
3.39	2.75	4.03	2.57	active	Ube2d3 (GeneID 66105)	4	qiagen single siRNA
-0.315	-0.258	-0.373	2.57	inactive	Ube2d3 (GeneID 66105)	5	qiagen single siRNA
2.59	2.38	2.8	2.57	active	Ube2d3 (GeneID 66105)	6	qiagen single siRNA
-0.855	-1.82	0.112	-1.85	inactive	Exosc1 (GeneID 66583)	1	ambion single siRNA
-2.66	-3.47	-1.85	-1.85	active	Exosc1 (GeneID 66583)	2	ambion single siRNA
-3.52	-3.52		-1.85	active	Exosc1 (GeneID 66583)	3	ambion single siRNA
-0.943	-1.87	-0.0144	-1.63	inactive	Exosc1 (GeneID 66583)	4	qiagen single siRNA
-1.53	-1.43	-1.63	-1.63	inactive	Exosc1 (GeneID 66583)	5	qiagen single siRNA
-1.73	-1.73		-1.63	inactive	Exosc1 (GeneID 66583)	6	qiagen single siRNA

No new results follow: entries from further up.
p65 translocation z-score, replicate mean	p65 translocation z-score, replicate 1	p65 translocation z-score, replicate 2	gene median z-score, per vendor	call	gene	siRNA no.	siRNA vendor or control pool
1.49	-0.177	3.15	-0.44	inactive	Tpr (GeneID 108989)	4	qiagen single siRNA
-0.978	-0.704	-1.25	-0.44	inactive	Tpr (GeneID 108989)	5	qiagen single siRNA
-0.178	-1.03	0.679	-0.44	inactive	Tpr (GeneID 108989)	6	qiagen single siRNA
